Experimental data as given in PMC9481931.
Read-outs that look alike come from different tables or passages of the source. These are yes or no findings as the source states them, for the method shown. In cells and extracts the contact can be indirect. A yes stands for co-enrichment or nearness to the bait. Other partners may have been found.

Amino acid sequences for entries named in this document (tags omitted).
UniProt A1ZAW0: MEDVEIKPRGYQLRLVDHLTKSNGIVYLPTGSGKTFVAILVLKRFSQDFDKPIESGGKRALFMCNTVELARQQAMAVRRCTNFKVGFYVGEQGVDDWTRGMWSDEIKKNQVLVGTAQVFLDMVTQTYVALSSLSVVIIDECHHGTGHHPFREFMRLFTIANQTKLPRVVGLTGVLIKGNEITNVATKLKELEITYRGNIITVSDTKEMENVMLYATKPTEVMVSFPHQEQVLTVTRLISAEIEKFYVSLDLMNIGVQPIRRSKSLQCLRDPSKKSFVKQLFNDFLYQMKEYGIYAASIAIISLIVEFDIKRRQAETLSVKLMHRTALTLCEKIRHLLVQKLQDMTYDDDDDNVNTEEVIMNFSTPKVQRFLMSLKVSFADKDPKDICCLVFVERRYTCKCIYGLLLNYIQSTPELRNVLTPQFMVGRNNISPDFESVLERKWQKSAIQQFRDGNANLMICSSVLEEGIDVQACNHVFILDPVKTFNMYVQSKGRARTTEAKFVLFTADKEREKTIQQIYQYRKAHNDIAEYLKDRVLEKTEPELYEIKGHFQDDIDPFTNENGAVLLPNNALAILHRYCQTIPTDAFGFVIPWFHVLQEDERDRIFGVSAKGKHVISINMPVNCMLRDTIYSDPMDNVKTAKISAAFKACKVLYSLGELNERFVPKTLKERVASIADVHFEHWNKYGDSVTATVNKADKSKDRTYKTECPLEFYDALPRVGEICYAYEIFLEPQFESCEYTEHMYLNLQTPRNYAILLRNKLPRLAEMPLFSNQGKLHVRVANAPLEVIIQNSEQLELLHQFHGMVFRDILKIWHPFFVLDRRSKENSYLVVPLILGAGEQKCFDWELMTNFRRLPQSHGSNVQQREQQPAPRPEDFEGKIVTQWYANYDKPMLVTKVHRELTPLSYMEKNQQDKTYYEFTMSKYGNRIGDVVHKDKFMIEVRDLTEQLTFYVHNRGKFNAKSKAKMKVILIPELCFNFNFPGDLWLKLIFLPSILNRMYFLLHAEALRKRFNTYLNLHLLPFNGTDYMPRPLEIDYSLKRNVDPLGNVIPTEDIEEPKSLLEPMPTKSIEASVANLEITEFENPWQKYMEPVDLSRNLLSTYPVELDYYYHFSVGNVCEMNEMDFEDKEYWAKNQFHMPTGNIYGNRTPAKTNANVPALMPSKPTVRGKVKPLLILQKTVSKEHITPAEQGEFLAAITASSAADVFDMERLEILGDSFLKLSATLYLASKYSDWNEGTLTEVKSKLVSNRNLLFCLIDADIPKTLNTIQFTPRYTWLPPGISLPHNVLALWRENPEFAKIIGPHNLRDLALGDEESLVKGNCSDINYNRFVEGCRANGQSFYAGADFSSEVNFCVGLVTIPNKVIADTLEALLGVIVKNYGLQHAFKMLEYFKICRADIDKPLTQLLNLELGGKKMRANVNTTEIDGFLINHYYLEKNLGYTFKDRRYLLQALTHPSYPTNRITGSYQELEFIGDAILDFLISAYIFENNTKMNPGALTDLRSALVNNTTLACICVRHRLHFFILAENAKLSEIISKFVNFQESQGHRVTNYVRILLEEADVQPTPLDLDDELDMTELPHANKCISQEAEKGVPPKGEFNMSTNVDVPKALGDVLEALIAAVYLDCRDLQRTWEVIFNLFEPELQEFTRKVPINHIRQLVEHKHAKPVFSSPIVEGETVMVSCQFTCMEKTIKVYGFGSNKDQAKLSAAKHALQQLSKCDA
UniProt Q9VCU9: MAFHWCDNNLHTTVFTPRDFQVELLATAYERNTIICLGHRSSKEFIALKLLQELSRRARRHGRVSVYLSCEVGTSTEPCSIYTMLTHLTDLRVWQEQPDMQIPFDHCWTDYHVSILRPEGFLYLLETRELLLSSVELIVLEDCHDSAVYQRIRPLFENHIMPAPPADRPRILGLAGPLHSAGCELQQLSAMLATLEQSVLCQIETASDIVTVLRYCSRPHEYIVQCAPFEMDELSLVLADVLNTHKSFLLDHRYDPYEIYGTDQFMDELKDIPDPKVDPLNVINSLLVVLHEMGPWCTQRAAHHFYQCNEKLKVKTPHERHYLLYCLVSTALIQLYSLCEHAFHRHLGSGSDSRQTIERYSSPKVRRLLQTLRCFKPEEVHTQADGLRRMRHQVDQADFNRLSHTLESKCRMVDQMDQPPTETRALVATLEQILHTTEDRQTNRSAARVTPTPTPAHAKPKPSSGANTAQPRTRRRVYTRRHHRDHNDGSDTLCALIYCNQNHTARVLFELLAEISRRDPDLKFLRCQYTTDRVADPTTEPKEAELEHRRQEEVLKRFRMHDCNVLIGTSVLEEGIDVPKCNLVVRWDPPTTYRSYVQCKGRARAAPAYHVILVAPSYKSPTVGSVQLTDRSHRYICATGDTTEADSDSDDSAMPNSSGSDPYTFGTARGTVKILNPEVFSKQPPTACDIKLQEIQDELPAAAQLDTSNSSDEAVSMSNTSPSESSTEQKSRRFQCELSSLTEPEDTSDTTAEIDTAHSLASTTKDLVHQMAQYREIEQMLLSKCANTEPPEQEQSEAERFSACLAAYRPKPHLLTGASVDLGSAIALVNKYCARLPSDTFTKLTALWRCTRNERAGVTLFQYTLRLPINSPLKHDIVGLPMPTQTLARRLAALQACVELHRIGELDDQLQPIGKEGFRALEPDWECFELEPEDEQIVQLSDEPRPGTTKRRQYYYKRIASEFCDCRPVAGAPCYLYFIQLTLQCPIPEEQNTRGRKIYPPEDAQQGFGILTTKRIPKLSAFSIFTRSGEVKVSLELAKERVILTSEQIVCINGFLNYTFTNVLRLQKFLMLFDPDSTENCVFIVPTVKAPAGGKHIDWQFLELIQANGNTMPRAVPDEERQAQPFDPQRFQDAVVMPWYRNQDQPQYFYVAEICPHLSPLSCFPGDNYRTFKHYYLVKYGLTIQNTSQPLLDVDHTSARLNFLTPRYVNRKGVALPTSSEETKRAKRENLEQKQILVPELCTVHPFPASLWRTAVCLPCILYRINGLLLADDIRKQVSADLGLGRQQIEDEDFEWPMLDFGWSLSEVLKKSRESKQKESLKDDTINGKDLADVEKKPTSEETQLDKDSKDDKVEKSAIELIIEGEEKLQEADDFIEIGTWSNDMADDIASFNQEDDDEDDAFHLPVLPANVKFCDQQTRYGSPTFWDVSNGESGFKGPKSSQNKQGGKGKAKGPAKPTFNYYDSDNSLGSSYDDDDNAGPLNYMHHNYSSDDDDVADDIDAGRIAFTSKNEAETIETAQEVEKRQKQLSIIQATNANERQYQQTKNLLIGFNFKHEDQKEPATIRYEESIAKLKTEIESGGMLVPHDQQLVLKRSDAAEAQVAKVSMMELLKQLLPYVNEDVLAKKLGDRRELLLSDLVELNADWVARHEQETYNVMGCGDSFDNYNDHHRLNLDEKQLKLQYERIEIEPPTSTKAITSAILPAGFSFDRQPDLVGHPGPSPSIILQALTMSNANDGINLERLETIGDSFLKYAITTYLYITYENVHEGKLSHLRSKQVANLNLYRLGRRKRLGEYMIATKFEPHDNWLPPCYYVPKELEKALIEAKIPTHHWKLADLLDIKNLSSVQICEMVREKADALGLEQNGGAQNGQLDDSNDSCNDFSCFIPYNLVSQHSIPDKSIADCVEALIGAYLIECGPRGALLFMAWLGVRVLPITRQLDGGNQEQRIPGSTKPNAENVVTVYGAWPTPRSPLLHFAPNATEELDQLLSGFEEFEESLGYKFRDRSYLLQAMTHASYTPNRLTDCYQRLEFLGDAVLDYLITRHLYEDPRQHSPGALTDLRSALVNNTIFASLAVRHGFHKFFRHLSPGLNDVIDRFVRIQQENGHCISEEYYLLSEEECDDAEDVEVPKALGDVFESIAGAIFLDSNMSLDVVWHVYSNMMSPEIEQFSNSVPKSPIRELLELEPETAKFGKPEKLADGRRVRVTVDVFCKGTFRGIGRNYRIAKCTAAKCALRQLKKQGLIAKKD
UniProt Q9NFU0: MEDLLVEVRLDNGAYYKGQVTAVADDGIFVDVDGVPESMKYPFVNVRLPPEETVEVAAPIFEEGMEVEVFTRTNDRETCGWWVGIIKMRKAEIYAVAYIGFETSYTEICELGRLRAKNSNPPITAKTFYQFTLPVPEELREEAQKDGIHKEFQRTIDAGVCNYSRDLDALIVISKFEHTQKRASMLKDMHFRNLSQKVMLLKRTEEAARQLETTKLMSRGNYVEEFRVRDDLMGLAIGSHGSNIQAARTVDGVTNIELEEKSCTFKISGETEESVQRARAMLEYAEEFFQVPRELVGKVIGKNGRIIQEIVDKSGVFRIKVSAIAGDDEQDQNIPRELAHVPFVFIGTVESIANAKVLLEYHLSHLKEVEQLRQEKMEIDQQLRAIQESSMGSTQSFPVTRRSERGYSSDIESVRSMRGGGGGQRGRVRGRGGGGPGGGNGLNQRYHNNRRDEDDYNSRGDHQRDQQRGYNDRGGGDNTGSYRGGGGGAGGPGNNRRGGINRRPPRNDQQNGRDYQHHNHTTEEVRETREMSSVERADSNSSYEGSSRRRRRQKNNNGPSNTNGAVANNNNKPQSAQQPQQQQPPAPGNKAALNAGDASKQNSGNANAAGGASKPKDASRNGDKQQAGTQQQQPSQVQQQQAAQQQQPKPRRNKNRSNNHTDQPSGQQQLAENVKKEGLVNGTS

B1: Ataxin-2 (protein, UniProt Q8SWR8 1-1084)
chain: MNNNSKRKTRPTGGGASGGISRYNSNDNSLRPTNNKAGAGGGNGGAAVRPSAQGVYNNTFFMHSATALVGSVVEVRLRSGNIYEGVFRTFSGNFDIALELPACIKSKNLPEEGKVPKHIIFPADTVVTIVAKDFDSQYATAGAFQTDGAISDKCNGARPDEKELEPWDSGANGDIDIELDSAANGWDPNEMFRKNENTFGVTSTFDDSLASYTVPLDKGDSLEFKEAEAKAEKLAAEIENNPTCRDRLDLENGDEEALFAAVERPSTEQDQRGDRGDRERNDRDREREERDRDRDRDRGNKPRGAGDFQLRETMSSDRYITKQTRSITGPQLSHVGMSSQGSGRDRDTRGDGSMMMQSGGGSGQGGSTQSTAALMLAGGLKGVGPAPSANASADSSSKYSGGSMVKRKTVPQGGKVMRNNVPTGGSNVSVSQGGNGNSVGQNKGGYQPSMGMPSQYSYQGNSQIMHGSSQYRNQSHMGGANKLNGDSNANTNKPLPQRQMRQYQGSQSNSSLNYGGEPQSLGKPVHGSHGGHPGQNSNSPPLQTAGPQQQQQQQQQQQQQQQQQQPPQQQQHQNIQPQGQNTQPARQVRTRDNQMQELRQFGQDFQLAPSNTSPPQQQQQQQQQQQQHQVQQQQQRALQQSASPPQQQQQQQQQQQHVVLHQVPQTHLHQAALSQPHYVPQQQPQQAPLPQQQHVPHHMQQKAQQQQLVETQHQHVQKQHQSQPQVQQPPPQLLQDPSQQPLPIYHTMPPPQTSPVVVTSPVLLEQPPPQPMPVVQQQQTQQLATPKPEVSPAPPSSNTTTPTGIASTPTAGVIASAGSEKTTPAAPTPTSNSATVPTGTAATAGGATGTTPVVKKHVLNPSAKPFTPRGPSTPNPSRPHTPQTPVPMTNIYTTTGGHVPPAANQPIYVMQPQHPFPPQTHPQAGQPPRLRRSNYPPMAASQMHVSASAATGQPLITAGPIPQFIQYGHAPHQQQFQSHTYAPMQMRVYPDQPQQLQFMTQTPQSTTPSPGQPHQQFHPPPQPSPAGGGPQPAFTPPTQAATYQLMCVHPQSLLANHYFPPPTPQHPQQNQQQYQIVMQQHQPQ
B2: R2D2 (protein, UniProt Q9VLW8 1-311)
chain: MDNKSAVSALQEFCARTQINLPTYSFIPGEDGGYVCKVELLEIEALGNGRSKRDAKHLAASNILRKIQLLPGIHGLMKDSTVGDLDEELTNLNRDMVKELRDYCVRREMPLPCIEVVQQSGTPSAPEFVACCSVASIVRYGKSDKKKDARQRAAIEMLALISSNSDNLRPDQMQVASTSKLKVVDMEESMEELEALRRKKFTTYWELKEAGSVDHTGMRLCDRHNYFKNFYPTLKKEAIEAINSDEYESSKDKAMDVMSSLKITPKISEVESSSLVPLLSVELNCAFDVVLMAKETDIYDHIIDYFRTMLI
B3: oskar (protein, UniProt P25158 1-606)
chain: MAAVTSEFPSKPISYTSTNTSAKTYYLKSVKKRVTTCFQQLRDKLQSSGSFRKSSSSCLNQIFVRSDFSACGERFRKIFKSARKTELPELWKVPLVAHELTSRQSSQQLQVVARLFSSTQISTKEITYNSNSNTSENNMTIIESNYISVREEYPDIDSEVRAILLSHAQNGITISSIKSEYRKLTGNPFPLHDNVTDFLLTIPNVTAECSESGKRIFNLKASLKNGHLLDMVLNQKERTSDYSSGAPSLENIPRAPPRYWKNPFKRRALSQLNTSPRTVPKITDEKTKDIATRPVSLHQMANEAAESNWCYQDNWKHLNNFYQQASVNAPKMPVPINIYSPDAPEEPINLAPPGHQPSCRTQSQKTEPTENRHLGIFVHPFNGMNIMKRRHEMTPTPTILTSGTYNDSLLTINSDYDAYLLDFPLMGDDFMLYLARMELKCRFRRHERVLQSGLCVSGLTINGARNRLKRVQLPEGTQIIVNIGSVDIMRGKPLVQIEHDFRLLIKEMHNMRLVPILTNLAPLGNYCHDKVLCDKIYRFNKFIRSECCHLKVIDIHSCLINERGVVRFDCFQASPRQVTGSKEPYLFWNKIGRQRVLQVIETSLEY
B4: Rasputin (protein, UniProt Q9VFT4 1-690)
chain: MVMDATQSQQPSPQSVGREFVRQYYTLLNKAPNHLHRFYNHNSSYIHGESKLVVGQREIHNRIQQLNFNDCHAKISQVDAQATLGNGVVVQVTGELSNDGQPMRRFTQTFVLAAQSPKKYYVHNDIFRYQDLYIEDEQDGESRSENDEEHDVQVVGGTVDQAVQVAGDVVAQQPQQQQAPPQPQAQVVVPQQVAPVAAGGAAPQQIFYPLPAGAAAGRPVAVLPPAPQAAAVPLPAQFTVPPPQPIQNGVVSHEELQQQQVLVPPSVSPLVQQQQPTGTPVLPIVPVPSAGFQQSPLVAPQLIQQQQQQQPAQLPPQQQQQQQPIQQQQPLQQQQQPLAEPEEVEVAPRQQKPPTPVEDFKTIHEQQQQEKYEAAKQQQNEPKTYANLFKSTSSSPSGFVNAALQQQQQLQQQQQQQQSISSNTYNSSSATSGGGNGSQVSYSTTASSYNNSNGNSRLDNGGPLPQRNNSIRNNKGDFEQRRSSNTQQFGDNQQLFLGNIPHHASEDDLREIFSRFGNVLELRILSKAGNKVPPGMRSPLNYGFITYDDPEAVQKCLANCPLYFPENSPDGQKLNVEEKKPRVRNDMVPRQQIGGNNLNNNMGRLGGNNGPQSRPMGNNNGSGGGMMRNNAGGNNLRQGGGGGNGAPRLGGGGGFGQRQDNRTGGGNNQSNGPLRGAGNGQSGGGNYGRR

Legend:
[1] = molecular target: Dicer-2 (Drosophila melanogaster (endogenous in embryo extracts)) (UniProt A1ZAW0); assay: affinity purification with mass spectrometry; anti-Dicer-2 IP from early embryo extract, with or without RNase I, LC-MSMS; scored by SAINTexpress and Top3 against Dicer-2 null extract and against IgG; high-confidence = enriched over both controls
[2] = molecular target: Dicer-2 (Drosophila melanogaster (endogenous in embryo extracts)) (UniProt A1ZAW0); assay: as above; remark: listed apart in the source

binding [1] | binding [2] | Molecule
binds |  | Dicer-1 (from UniProt Q9VCU9 1-2249) (enzyme)
binds |  | Fmr1 (from UniProt Q9NFU0 1-684)
 | binds | B1
 | binds | B2
 | binds | B3
 | binds | B4
